{
  "source": "patent US7112605B2",
  "about": "“Sulfonyl-containing 3,4-diaryl-3-pyrrolin-2-ones, preparation method, and medical use thereof” (Research Institute of Materia Medica Chinese Acadamy of …, priority 2002, dated 2006)",
  "note": "For at least one compound, name, drawing or mass did not settle the structure.",
  "data": [
    {"target": "T1, Cyclooxygenase-2 (Mus musculus, UniProt Q05769)", "T1 construct": "endogenous in cells; host or cells: thioglycollate-elicited peritoneal macrophages of male C57BL-6J mice", "T1 sequence (Q05769 18-604)": "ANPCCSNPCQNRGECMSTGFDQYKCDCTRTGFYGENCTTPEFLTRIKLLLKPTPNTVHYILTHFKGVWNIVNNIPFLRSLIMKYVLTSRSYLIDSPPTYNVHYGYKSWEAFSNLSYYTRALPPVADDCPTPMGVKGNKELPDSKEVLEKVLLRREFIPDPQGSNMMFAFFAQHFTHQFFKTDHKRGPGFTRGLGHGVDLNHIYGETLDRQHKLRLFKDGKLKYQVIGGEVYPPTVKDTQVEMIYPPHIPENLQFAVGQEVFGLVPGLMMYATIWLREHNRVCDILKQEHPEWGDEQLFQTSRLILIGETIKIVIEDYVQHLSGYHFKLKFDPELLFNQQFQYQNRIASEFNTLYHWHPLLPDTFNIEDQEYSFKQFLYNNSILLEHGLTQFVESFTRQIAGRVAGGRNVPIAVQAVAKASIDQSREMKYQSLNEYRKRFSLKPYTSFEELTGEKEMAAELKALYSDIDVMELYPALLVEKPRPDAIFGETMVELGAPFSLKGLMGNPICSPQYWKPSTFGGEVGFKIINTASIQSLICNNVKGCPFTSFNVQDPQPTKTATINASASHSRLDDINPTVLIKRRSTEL", "experiment": "COX-2 assay: LPS-stimulated PGE2 production in mouse peritoneal macrophages (RIA)", "assay_type": "cell-based, mice", "conditions": "ratio of IC50 COX-1 to IC50 COX-2", "description": "Cell culture: Adherent macrophages were harvested from the peritoneal cells of male mice (C57BL-6J, Level 2, from Experiment Animal Center, Academy of Military Medical Science) 3 d after the injection (ip) of brewer thioglycollate medium (5 mL/100 g body weight). […] After settlement for 2˜3 h, non-adherent cells were washed by D-Hanks' balanced salt solution. […] Cell viability was examined by trypan blue dye exclusion. All incubation procedures were performed with 5% CO2 in humidified air at 37° C.\nCOX-2 assay: Macrophages were incubated with test compound at different concentrations or solvent (Me2SO) for 1 h and were stimulated with LPS 1 mg/L for 9 h. The amount of PGE2 in supernatants was measured by RIA. The inhibitory ratio was calculated using the same formula as in COX-1 assay section. Cs, Ct, Cc refer to PGE2 concentration in supernatants of LPS, test compound, and control groups, respectively.\n[formula] Cs, Ct, Cc refer to 6-keto-PGF1[…] concentration in supernatants of calcimycin, test compound, and control groups, respectively.\nStatistical analysis: Data were expressed as the mean±SD of more than three independent experiments. Dose-inhibitory effect curves were fit through “uphill dose response curves, variable slope” using Prism, GraphPad version3.00: […]", "values": [
      {"smiles": "CCCN1CC(c2ccc(S(C)(=O)=O)cc2)=C(c2cccc(C)c2)C1=O", "note": "[Example 121, N-Propyl-3-(3-methylphenyl)-4-(4-methylsulfonylphenyl)-2,5-dihydropyrrole-2-one]", "COX-1/COX-2": 6.2},
      {"smiles": "CCCN1CC(c2ccc(S(C)(=O)=O)cc2)=C(c2ccc(C)cc2)C1=O", "note": "[Example 122, N-Propyl-3-(4-methylphenyl)-4-(4-methylsulfonylphenyl)-2,5-dihydropyrrole-2-one]", "COX-1/COX-2": 6.1},
      {"smiles": "CCCN1CC(c2ccc(S(C)(=O)=O)cc2)=C(c2ccc(F)cc2)C1=O", "note": "[Example 123, N-Propyl-3-(4-fluorophenyl)-4-(4-methylsulfonylphenyl)-2,5-dihydropyrrole-2-one]", "COX-1/COX-2": 17.6}
    ]}
  ]
}
